According to paper PMC6225628:
These are yes or no findings as the source states them, for the method shown. Binding seen in cells or lysates may run through a third protein. Binding can be weak; no strength is given.

Target: TRIAD1 (ARIH2, Ariadne RBR E3 ubiquitin protein ligase 2) (rat (endogenous in rat brain))
Assay: co-IP; endogenous proteins, rat brain after TBI; immunoprecipitation and Western blot; which protein was precipitated is not given

binding: binds
B1: DISC1 (protein, UniProt Q810H6 1-846)
chain: MQGAGSRGAWIHSPSHCPGNGHGSPPAVAPQRRRLTRRPGYMRSTASPGIGFLSPAVGMPRPISAGLTGQEFYPSQSKARQCSLDLRSHCQDSLVGNPFLKGSLGPAVTSVGHLHPAQGSMRERMVHSGVHSGNDRRQSERLTGDSGCRQEFLSSDSSKSLASSLDVAWSKGSRGLKTVRPLVSPASNGPVDIPSLPGFQDTFTSNFSFIRLSLGAAGERGEAEGCLPSREAEPLHQSPQEMAAEGSGSDRPHGEPRHLWTFSLHAAPGLVDLAQGTRSNRQPECGMVSSSDAGFSSQDASPAGGRSDQDGGWADAHGWHALLREWEPMLQDYLLSNRRQLEVTSLILKLQKLQEKAVEDGDYDMAETLRQRLEDLEQEKGRLPWALPSQQPALRSFLGYLATQTHAALHGAPQRAGSDDPEAPLEGQRRTTAQDSLPGLAVTRRDWLMREKEQLQKEIEALRARVSVLEAKEQRLSQELEDQEMLLRWQGCDQMALVAQLSPGQLQEVSKALGETLTSARWAPFRVEPPETLRSLRERTKSLDLAVRELTEQVCSGEKLCSSLRKRLADLDTRLPALLEAKMLALSGSCFSTAKELAEEIWAVSSEREGLEMFLGRLLALSSRNTRRLGSVKEDYLRCRQDLALQEAAHKTRVKANTVKCTEVLEGQLSCCRCPLLERVWKADLEACQLLMQSLEIQEAGSSSHVEDEKQVHSTGEAAQTAALAVPRTPHPEEEKSPLQVLCEWNTYSASLPHCAAGLWKEESHVVFAEVGDKCEAIGMRLLHLEDQLLGAMHGHDEALFQSLQGELQMVKETLQTMFLQLQPAKEAGGEASASYSTAGAQEAED
